Data on one molecule can be found in article PMC12064020.

The target in this assay is PfMSP3 on the surface of live P. falciparum 3D7 merozoites (P. falciparum 3D7 (endogenous in merozoites)). Description: flow cytometry on cells; live 3D7 merozoites in 5% BSA/PBS at room temperature, incubated with purified human C1-INH (0,02 μg/μl), with or without pre-incubation with MP3.01 mAb (up to 50 μg/mL); bound C1-INH stained with a rabbit polyclonal antibody; only the binder purified. (A flow cytometer gives signals particle by particle.)

These are yes or no findings as the source states them, for the method shown. A result given as binding can be weak or reduced; the word gives no strength.

B1: human C1 esterase inhibitor (C1-INH) (protein, UniProt P05155 23-500)
chain: NPNATSSSSQDPESLQDRGEGKVATTVISKMLFVEPILEVSSLPTTNSTTNSATKITANTTDEPTTQPTTEPTTQPTIQPTQPTTQLPTDSPTQPTTGSFCPGPVTLCSDLESHSTEAVLGDALVDFSLKLYHAFSAMKKVETNMAFSPFSIASLLTQVLLGAGENTKTNLESILSYPKDFTCVHQALKGFTTKGVTSVSQIFHSPDLAIRDTFVNASRTLYSSSPRVLSNNSDANLELINTWVAKNTNNKISRLLDSLPSDTRLVLLNAIYLSAKWKTTFDPKKTRMEPFHFKNSVIKVPMMNSKKYPVAHFIDQTLKAKVGQLQLSHNLSLVILVPQNLKHRLEDMEQALSPSVFKAIMEKLEMSKFQPTLLTLPRIKVTTSQDMLSIMEKLEFFDFSYDLNLCGLTEDPDLQVSAMQHQTVLELTETGVEAAAASAISVARTLLVFEVQQPFLFVLWDQQHKFPVFMGRVYDPRA
On to B1, for which the binding entry is on record as “binds”.
